Laboratory results published in the supplement of paper PMC11546906.
Where a name gives a salt, the structure may show the parent alone. The list shows a part of the results. This data set is noisy: repeats of one test often differ as much as different tests do.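 FDA-approved drugs were each paired with colistin at one-eighth its MIC and screened against a multidrug-resistant, mcr-1-positive clinical E. coli isolate, with OD600 read after 24 h. Drug-free bacteria served as growth control, plain broth as blank. Combinations were active if OD600 dropped below 0.2.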

What follows are compounds tested on Escherichia coli 42 (mcr-1-positive clinical isolate) (assay: OD600 after 24 h growth with compound plus colistin (absorbance units (OD600)); higher = more bacterial growth (less inhibition)). Details: first compound 25 µM; colistin concentration 0.5 ug/mL; incubation time 24 h; 37 °C.

SMILES	OD600
CC[C@H](C)C(=O)O[C@H]1C[C@H](O)C=C2C=C[C@H](C)[C@H](CC[C@@H](O)C[C@@H](O)CC(=O)O)[C@H]21 [Pravastatin sodium] + CCC(C)CCCC(=O)N[C@@H](CCN)C(=O)N[C@H](C(=O)N[C@@H](CCN)C(=O)N[C@H]1CCNC(=O)[C@H]([C@@H](C)O)NC(=O)[C@H](CCN)NC(=O)[C@H](CCN)NC(=O)[C@H](CC(C)C)NC(=O)[C@@H](CC(C)C)NC(=O)[C@H](CCN)NC1=O)[C@@H](C)O [colistin]	inactive: 1.2
CCOc1ccc2ccccc2c1C(=O)N[C@@H]1C(=O)N2[C@@H]1SC(C)(C)[C@@H]2C(=O)O [Nafcillin sodium monohydrate] + CCC(C)CCCC(=O)N[C@@H](CCN)C(=O)N[C@H](C(=O)N[C@@H](CCN)C(=O)N[C@H]1CCNC(=O)[C@H]([C@@H](C)O)NC(=O)[C@H](CCN)NC(=O)[C@H](CCN)NC(=O)[C@H](CC(C)C)NC(=O)[C@@H](CC(C)C)NC(=O)[C@H](CCN)NC1=O)[C@@H](C)O [colistin]	inactive: 0.989
O=c1[nH]cnc2c1ncn2[C@@H]1O[C@H](CO)[C@@H](O)[C@H]1O [Inosine] + CCC(C)CCCC(=O)N[C@@H](CCN)C(=O)N[C@H](C(=O)N[C@@H](CCN)C(=O)N[C@H]1CCNC(=O)[C@H]([C@@H](C)O)NC(=O)[C@H](CCN)NC(=O)[C@H](CCN)NC(=O)[C@H](CC(C)C)NC(=O)[C@@H](CC(C)C)NC(=O)[C@H](CCN)NC1=O)[C@@H](C)O [colistin]	inactive: 1.12
O=C1CCc2ccc(OCCCCN3CCN(c4cccc(Cl)c4Cl)CC3)cc2N1 [Aripiprazole] + CCC(C)CCCC(=O)N[C@@H](CCN)C(=O)N[C@H](C(=O)N[C@@H](CCN)C(=O)N[C@H]1CCNC(=O)[C@H]([C@@H](C)O)NC(=O)[C@H](CCN)NC(=O)[C@H](CCN)NC(=O)[C@H](CC(C)C)NC(=O)[C@@H](CC(C)C)NC(=O)[C@H](CCN)NC1=O)[C@@H](C)O [colistin]	inactive: 0.818
CCN(CC)CCNC(=O)c1cc(Cl)c(N)cc1OC [Metoclopramide hydrochloride] + CCC(C)CCCC(=O)N[C@@H](CCN)C(=O)N[C@H](C(=O)N[C@@H](CCN)C(=O)N[C@H]1CCNC(=O)[C@H]([C@@H](C)O)NC(=O)[C@H](CCN)NC(=O)[C@H](CCN)NC(=O)[C@H](CC(C)C)NC(=O)[C@@H](CC(C)C)NC(=O)[C@H](CCN)NC1=O)[C@@H](C)O [colistin]	inactive: 1.08
